# Library compounds against nucleic acid targets

Source: the ROBIN nucleic acid binder screens (doi:10.1002/anie.202211358).

Targets (5′ to 3′):
SAM-II: SAM-II riboswitch RNA pseudoknot, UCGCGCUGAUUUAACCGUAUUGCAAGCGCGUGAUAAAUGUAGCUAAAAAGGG. About 21,000 compounds screened, about 200 hits.
PreQ1: PreQ1 riboswitch RNA pseudoknot, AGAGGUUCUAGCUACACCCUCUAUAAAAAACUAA. From B. subtilis. About 24,000 compounds screened, about 170 hits.

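Compounds were printed on reactive glass slides in duplicate spots, a dye-labelled oligonucleotide was laid over them, and the fluorescence left after washing was read. The data file lists only calls. An earlier report of the laboratory on the PreQ1, TPP and SAM-II riboswitches (doi:10.1038/s41467-019-09493-3) used 1 µM RNA for 2 h and required a mean Z-score above 3 (spot signal-to-noise against the whole library), a score well above that on a control array, and duplicate spots agreeing (coefficient of variation under 100); it then also set aside compounds that hit other targets, which this list keeps. The cut-offs behind this list may differ. These are primary screening calls, not affinities; a compound without a hit may have attached poorly or may still bind in solution.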
A compound is marked hit if it was called a hit and no hit if it was screened but was not.
This is an unselected part of the compounds tested.
A target missing from an entry has no call listed here.
A dash means that no call is listed here.

* Cc1nc2ccccc2nc1CN1CCC2(CC1)[C@H](O)C[C@@H]2OCCN : SAM-II: no hit; PreQ1: no hit
* COc1cc(C(=O)NS(=O)(=O)c2ccccc2C)ccc1Cc1cn(C)c2ccc(NC(=O)OC3CCCC3)cc12 : SAM-II: no hit; PreQ1: no hit
* CC1=C(c2ccc(C(C)C)cc2)S(=O)(=O)N=C1Nc1cc(F)ccc1F : PreQ1: no hit
* O=c1cc(O)c(Cl)c[nH]1 : SAM-II: no hit; PreQ1: no hit
* Cn1c(CCNC(=O)C2NCCc3[nH]cnc32)nc2ccccc21 (stereo not shown) : SAM-II: no hit; PreQ1: no hit
* Cc1ccccc1OCCCCn1c(C(C)O)nc2ccccc21 (stereo not shown) : PreQ1: no hit
* Cc1ccccc1OCCCn1c(CCCO)nc2ccccc21 : SAM-II: no hit; PreQ1: no hit
* O=S1(=O)CCC(N(/N=C/c2ccco2)c2ccccc2)C1 (stereo not shown) : SAM-II: no hit; PreQ1: no hit
* c1cnc(Oc2cccc(CNCCCn3ccnc3)c2)nc1 : SAM-II: no hit; PreQ1: no hit
* O=C(O)c1cc(NCc2ccccc2C(F)(F)F)ccc1N1CCOCC1 : SAM-II: no hit; PreQ1: no hit
* Nc1nc(CSc2nnc(-c3ccccc3)[nH]2)nc(Nc2ccccc2)n1 : SAM-II: no hit; PreQ1: no hit
* Cc1cc(Nc2ccc(C(=O)N3CCOCC3)cc2)n2nc(-c3cccnc3)nc2n1 : PreQ1: no hit
* Cn1c(=O)n(C)c2cc(C(O)COc3ccc(CNCCc4ccccc4)cc3)ccc21 (stereo not shown) : PreQ1: no hit
* CNCC(=O)NC1CC(=O)N(c2ccccc2OC)C1 (stereo not shown) : SAM-II: no hit; PreQ1: no hit
* CN1CCN(c2cc(Sc3cccs3)nc(N)n2)CC1CCO (stereo not shown) : SAM-II: no hit; PreQ1: no hit
* COc1ccc(F)c(CN2CCCC(O)(CNCCn3cccn3)C2=O)c1 (stereo not shown) : SAM-II: no hit; PreQ1: no hit
* Cc1c(-c2ccccc2F)[nH]c2ccc(CNC(=O)c3cc(N)[nH]n3)cc12 : SAM-II: hit; PreQ1: hit
* NCCS(=O)(=O)N1CCOCC1 : SAM-II: no hit; PreQ1: no hit
* NCCc1nnc(SCc2ccc(Br)cc2)o1 : PreQ1: no hit
* O=C(Nc1ccc(Cl)cc1)N1CCOCC(O)C1 (stereo not shown) : SAM-II: no hit; PreQ1: no hit
* CCOc1ccc([C@@H]2C[C@H](c3cccc(Br)c3)n3nc(N)nc3N2)cc1 : SAM-II: no hit; PreQ1: no hit
* COc1cc(CNc2ccc(N3CCOCC3)cc2)cc(Cl)c1OCC(N)=O : SAM-II: hit; PreQ1: no hit
* Nc1c(C(=O)Nc2ccc(F)c(F)c2)nnn1Cc1ccc(F)cc1 : SAM-II: no hit; PreQ1: no hit
* COc1ccc(-c2ccc(CNC3CC3)o2)cc1Cl : PreQ1: no hit
* Cc1ccc2ncc(S(=O)(=O)c3ccccc3)c(NCc3ccccc3)c2c1 : PreQ1: no hit
* COc1ccc(-c2nn3c(NCCN(C)C)cc(C)nc3c2C)cc1OC : PreQ1: no hit
* Nc1nnc(CCNc2nccc(CCC(F)(F)F)n2)s1 : SAM-II: no hit; PreQ1: no hit
* Cc1ccc2oc(-c3ccccc3)cc(=[NH+]CCO)c2c1 : SAM-II: no hit; PreQ1: no hit
* Cc1ccc2c(c1)c1ccc3c(c1n2C)C(=O)C=CC3=O : SAM-II: no hit; PreQ1: no hit
* Cc1ccc(-c2nc3cc(Cl)ccc3o2)cc1N : SAM-II: no hit; PreQ1: no hit
* CCOC(=O)c1cccc(Nc2c(-c3ccc(N(C)C)cc3)nc3cnccn23)c1 : PreQ1: no hit
* Cc1cc(C)c2c(N)c(C(=O)c3ccc(Cl)cc3)oc2n1 : SAM-II: no hit; PreQ1: no hit
* Fc1ccc(-c2cc(-c3cccs3)cc(-c3ccccc3)n2)cc1 : SAM-II: no hit; PreQ1: no hit
* COc1cccc(C(O)Cc2nc3ccccc3n2C)c1OC (stereo not shown) : SAM-II: no hit; PreQ1: no hit
* NC(=O)c1ccc(/N=N/c2c(O)c3ccccc3[nH]c2=O)cc1 : SAM-II: no hit; PreQ1: no hit
* Cc1ccc(C(CC(=O)c2ccco2)SCCO)cc1 (stereo not shown) : SAM-II: no hit; PreQ1: no hit

The first 4 entries again:

| SMILES | SAM-II | PreQ1 |
|---|---|---|
| `Cc1nc2ccccc2nc1CN1CCC2(CC1)[C@H](O)C[C@@H]2OCCN` | no hit | no hit |
| `COc1cc(C(=O)NS(=O)(=O)c2ccccc2C)ccc1Cc1cn(C)c2ccc(NC(=O)OC3CCCC3)cc12` | no hit | no hit |
| `CC1=C(c2ccc(C(C)C)cc2)S(=O)(=O)N=C1Nc1cc(F)ccc1F` | - | no hit |
| `O=c1cc(O)c(Cl)c[nH]1` | no hit | no hit |